Results published in PMC5391204.
Results are given in words; binding and its absence hold for the method and conditions named. In cells and extracts the contact can be indirect. Some binding calls cover weakened binding; strength is not graded here. Where a sequence is shown, tags or fusion partners need not be part of it.

Target: T1, FLAG-tagged CCDC115 (human) (UniProt Q96NT0)
T1 sequence: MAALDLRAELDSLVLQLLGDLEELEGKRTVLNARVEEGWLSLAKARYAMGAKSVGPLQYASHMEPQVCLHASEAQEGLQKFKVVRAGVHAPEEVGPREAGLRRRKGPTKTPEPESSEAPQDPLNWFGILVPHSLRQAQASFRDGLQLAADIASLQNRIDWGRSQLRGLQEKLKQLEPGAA
Experiment: co-IP; HeLa cells lysed in 1% NP-40, TBS, diluted to 0.1% detergent; anti-FLAG M2 magnetic beads, 3 hr at 4°C; eluted with FLAG peptide; immunoblot for endogenous TMEM199; wildtype or TMEM199 deficient cells; unrelated FLAG tagged protein as control

binding: binds
B1: TMEM199 (protein, UniProt Q8N511 1-208)
chain: MASSLLAGERLVRALGPGGELEPERLPRKLRAELEAALGKKHKGGDSSSGPQRLVSFRLIRDLHQHLRERDSKLYLHELLEGSEIYLPEVVKPPRNPELVARLEKIKIQLANEEYKRITRNVTCQDTRHGGTLSDLGKQVRSLKALVITIFNFIVTVVAAFVCTYLGSQYIFTEMASRVLAALIVASVVGLAELYVMVRAMEGELGEL
